According to US20240366728A1, “Treatment of Diabetes Mellitus” (Carmot Therapeutics Inc., priority 2023, published 2024):
“And” between values parts separate entries of the source, which are not always exact repeats. Equal values may be shown once. “Also recorded” adds a separate entry of the source. At least one compound was matched to its structure with a doubt left.

How the values were obtained:
participants with T2DM [1] = assay: CT-868-003 crossover study: appetite/hunger VAS, ad libitum food intake, body weight; assay type: in vivo, human; conditions: Table 22, T2DM
[2] = system: Akita, wild type and GLP-1R-KO mice; assay: pyruvate tolerance test; assay type: in vivo, mouse; conditions: for GLUC AUC suppressed in response to pyruvate challenge: 100 nmol/kg; for glucose levels during PTT (in words): 30 and 300 nmol/kg
DIO-STZ mice = assay: chronic daily dosing in DIO-STZ mice on LinBit insulin; assay type: in vivo, mouse
Akita mice = assay: chronic daily dosing in Akita mice with or without LinBit insulin; assay type: in vivo, mouse
participants with T2DM [3] = assay: CT-868-003 crossover study: mixed meal tolerance test; assay type: in vivo, human
C57BL/6J DIO mice = assay: mixed meal tolerance test in DIO mice; assay type: in vivo, mouse; conditions: 30 nmol/kg SC 24 h before MMTT
participants with T2DM [4] = assay: CT-868-003 crossover study: gastric emptying by acetaminophen absorption; assay type: in vivo, human; conditions: under the named treatment
mouse GLP-1R = molecular target: T1, mouse GLP-1R (Mus musculus, UniProt O35659); assay: cAMP accumulation (HitHunter cAMP assay), mouse GLP-1R U2OS cells; conditions: Table 17
T1 sequence (O35659 22-463): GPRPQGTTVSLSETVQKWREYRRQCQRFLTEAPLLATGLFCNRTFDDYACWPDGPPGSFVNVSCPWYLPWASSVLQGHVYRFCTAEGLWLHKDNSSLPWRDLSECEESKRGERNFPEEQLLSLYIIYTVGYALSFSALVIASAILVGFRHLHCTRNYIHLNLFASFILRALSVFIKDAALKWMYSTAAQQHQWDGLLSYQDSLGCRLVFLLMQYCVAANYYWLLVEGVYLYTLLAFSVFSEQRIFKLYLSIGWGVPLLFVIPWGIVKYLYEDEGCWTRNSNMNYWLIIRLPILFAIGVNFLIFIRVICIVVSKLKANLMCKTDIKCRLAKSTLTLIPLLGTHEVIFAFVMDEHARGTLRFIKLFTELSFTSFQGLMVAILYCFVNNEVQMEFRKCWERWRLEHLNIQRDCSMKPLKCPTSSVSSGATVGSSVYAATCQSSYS

[5] = 200 nmol/kg, background of insulin
[6] = 300 nmol/kg + 0.5 pellets LinBit INS, 14 days

CCCCCCCCCCCCCCCC(=O)N[C@@H](CCC(=O)NCCCC[C@H](NC(=O)[C@H](CO)NC(=O)[C@@H]1CCCN1C(=O)[C@@H]1CCCN1C(=O)[C@@H]1CCCN1C(=O)[C@H](C)NC(=O)CNC(=O)[C@H](CO)NC(=O)[C@H](CO)NC(=O)[C@@H]1CCCN1C(=O)CNC(=O)CNC(=O)[C@H](C)NC(=O)[C@H](CC(C)C)NC(=O)[C@H](CC(C)C)NC(=O)[C@H](Cc1c[nH]c2ccccc12)NC(=O)[C@H](CC(N)=O)NC(=O)[C@@H](NC(=O)[C@H](Cc1ccccc1)NC(=O)[C@H](CCC(=O)O)NC(=O)C(C)(C)NC(=O)[C@H](C)NC(=O)[C@H](C)NC(=O)[C@H](CCC(N)=O)NC(=O)[C@H](CCCCN)NC(=O)[C@H](CC(=O)O)NC(=O)[C@H](CC(C)C)NC(=O)[C@H](Cc1ccc(O)cc1)NC(=O)[C@@H](NC(=O)[C@H](CO)NC(=O)[C@H](Cc1ccc(O)cc1)NC(=O)[C@H](CC(=O)O)NC(=O)[C@H](CO)NC(=O)[C@@H](NC(=O)[C@H](Cc1ccccc1)NC(=O)[C@@H](NC(=O)CNC(=O)[C@H](CCC(=O)O)NC(=O)CSCC(=O)NCCN1CCCCC1=O)[C@@H](C)O)[C@@H](C)O)[C@@H](C)CC)C(C)C)C(N)=O)C(=O)O [CT-868]
Body weight, LS mean (participants with T2DM [1]; Day 1): 93.3 [85.4, kg
Hunger score (VAS: 0-100 points), LS mean (participants with T2DM [1]; Day 1): 60.3 [50.1, points
Appetite score (VAS: 0-100 points), LS mean (participants with T2DM [1]; Day 4): 45.1 [33.9, points
Body weight, LS mean (participants with T2DM [1]; Day 4): 93.4 [85.6, kg
Hunger score (VAS: 0-100 points), LS mean (participants with T2DM [1]; Day 4): 46.8 [34.6, points
GLUC AUC suppressed in response to pyruvate challenge ([2]; Akita mice, background of INS): 36%
glucose levels during PTT (in words) ([2]; GLP-1R KO mice): only the 300 nmol/kg dose lowered glucose levels
GLUC AUC suppressed in response to pyruvate challenge ([2]; GLP-1R-/- mice): 14%
glucose levels during PTT (in words) ([2]; wild-type mice): decreased glucose levels during the PTT
BG lowered as compared to liraglutide 200 nmol/kg (DIO-STZ mice; [5]): 32%
body weight vs liraglutide (in words) (DIO-STZ mice; adjunctive to insulin): lowered BW more than liraglutide
blood glucose decreased as compared to liraglutide 20 nmol/kg (Akita mice; 20 nmol/kg, 14 days): 30%
body weight decreased as compared to liraglutide 20 nmol/kg (Akita mice; 20 nmol/kg, 14 days): 4%
BG lowered as compared to liraglutide 200 nmol/kg (Akita mice; [5]): 35%
INS levels lower than vehicle+high INS (1.5 pellets) (Akita mice; [6]): 68%
blood glucose (in words) (Akita mice; [6]): normalized BG to same extent as vehicle+high INS
glucagon during MMTT (in words) (participants with T2DM [3]): minimal suppression of glucagon; also recorded: Glucagon response was similar between CT-868 and placebo
glucose lowering in MMTT vs placebo (in words) (participants with T2DM [3]): robust glucose-lowering effects
insulin excursions in MMTT (in words) (participants with T2DM [3]): smaller insulin excursions than liraglutide and placebo
Glucose incremental AUC0-240min (participants with T2DM [3]; MMTT): 72(46) mmol/L*min and 72** mmol/L*min
Insulin incremental AUC0-240min (participants with T2DM [3]; MMTT): 1178(846) mU/L*min and 1178*^,‡ mU/L*min
Insulin x Glucose (participants with T2DM [3]; MMTT iAUC0-240min): 84,378
Glucagon iAUC0-240min, LS mean (SE) (participants with T2DM [3]; Table 20, MMTT): −208.42 (575.60) pmol/L*min
Glucagon iAUC0-240min, Mean (SD) (participants with T2DM [3]; Table 20, MMTT): −200.28 (1196.66) pmol/L*min
Glucose iAUC0-240min, LS mean (SE) (participants with T2DM [3]; Table 20, MMTT): 71.60 (46.24) mmol/L*min
Glucose iAUC0-240min, Mean (SD) (participants with T2DM [3]; Table 20, MMTT): 72.29 (214.92) mmol/L*min
Insulin iAUC0-240min, LS mean (SE) (participants with T2DM [3]; Table 20, MMTT): 1178.46 (845.99) mU/L*min
Insulin iAUC0-240min, Mean (SD) (participants with T2DM [3]; Table 20, MMTT): 1187.48 (3873.08) mU/L*min
Glucagon iAUC0-240min, LS mean difference CT-868 vs liraglutide (participants with T2DM [3]; printed in Liraglutide column): 351.349 pmol/L*min and 351.349 [−673.85, pmol/L*min
Glucose iAUC0-240min, LS mean difference CT-868 vs liraglutide (participants with T2DM [3]; printed in Liraglutide column): −110.60 mmol/L*min and −110.60 [−241.54, 20.34] mmol/L*min
Insulin iAUC0-240min, LS mean difference CT-868 vs liraglutide (participants with T2DM [3]; printed in Liraglutide column): −2701.72 [−5311.22, mU/L*min
Glucagon iAUC0-240min, LS mean difference CT-868 vs placebo (participants with T2DM [3]; printed in Placebo column): −799.29 pmol/L*min and −799.29 [−2482.44, pmol/L*min
Glucose iAUC0-240min, LS mean difference CT-868 vs placebo (participants with T2DM [3]; printed in Placebo column): −320.40 mmol/L*min and −320.40 [−455.41, mmol/L*min
Insulin iAUC0-240min, LS mean difference CT-868 vs placebo (participants with T2DM [3]; printed in Placebo column): −4654.11 [−7127.92, mU/L*min
blood glucose AUC in MMTT (in words) (C57BL/6J DIO mice): greater efficacy than liraglutide in suppressing glucose excursion
insulin AUC in MMTT (in words) (C57BL/6J DIO mice): non-significant trend toward higher insulin levels
Acetaminophen Cmax, 0-300 min, Mean (SD) (participants with T2DM [4]): 9.2 (6.31) mg/L
Acetaminophen Tmax, 0-300 min, Mean (SD) (participants with T2DM [4]): 42.2 (29.52) mg/L
Time-weighted average acetaminophen AUC0-300min, Mean (SD) (participants with T2DM [4]): 6.0 (2.80) mg/L*min
mGIPR/mGLP-1R cAMP ratio (mouse GLP-1R): 6
